From patent US20180002425A1
These are yes or no findings as the source states them, for the method shown. Some entries that bind do so weakly or less than the wild type. Each block holds one binder with its values, some of them ahead of it.

Chains of the proteins cited; added tags and fusions are not shown. Residues count along the entry.
UniProt Q08351, residues 26-482: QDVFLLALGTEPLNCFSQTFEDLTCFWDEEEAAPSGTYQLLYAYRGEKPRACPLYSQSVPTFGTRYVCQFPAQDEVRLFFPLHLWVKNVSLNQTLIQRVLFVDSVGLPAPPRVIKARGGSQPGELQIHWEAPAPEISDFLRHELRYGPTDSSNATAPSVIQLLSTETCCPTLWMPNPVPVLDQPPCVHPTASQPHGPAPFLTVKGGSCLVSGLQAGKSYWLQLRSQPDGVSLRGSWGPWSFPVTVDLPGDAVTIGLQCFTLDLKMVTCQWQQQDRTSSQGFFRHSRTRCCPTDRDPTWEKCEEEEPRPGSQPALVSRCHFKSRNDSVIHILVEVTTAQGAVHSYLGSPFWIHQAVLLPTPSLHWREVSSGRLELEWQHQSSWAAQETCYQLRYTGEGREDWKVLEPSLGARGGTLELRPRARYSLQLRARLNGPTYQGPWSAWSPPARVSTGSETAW

Legend:
[1] = biological target: mouse TpoR (mouse) (UniProt Q08351); experiment: immunochemical studies (not detailed)
[2] = biological target: T1, granulocyte colony stimulating factor receptor (UniProt Q99062); experiment: figure legend (FIG. 11)
T1 sequence (looked up): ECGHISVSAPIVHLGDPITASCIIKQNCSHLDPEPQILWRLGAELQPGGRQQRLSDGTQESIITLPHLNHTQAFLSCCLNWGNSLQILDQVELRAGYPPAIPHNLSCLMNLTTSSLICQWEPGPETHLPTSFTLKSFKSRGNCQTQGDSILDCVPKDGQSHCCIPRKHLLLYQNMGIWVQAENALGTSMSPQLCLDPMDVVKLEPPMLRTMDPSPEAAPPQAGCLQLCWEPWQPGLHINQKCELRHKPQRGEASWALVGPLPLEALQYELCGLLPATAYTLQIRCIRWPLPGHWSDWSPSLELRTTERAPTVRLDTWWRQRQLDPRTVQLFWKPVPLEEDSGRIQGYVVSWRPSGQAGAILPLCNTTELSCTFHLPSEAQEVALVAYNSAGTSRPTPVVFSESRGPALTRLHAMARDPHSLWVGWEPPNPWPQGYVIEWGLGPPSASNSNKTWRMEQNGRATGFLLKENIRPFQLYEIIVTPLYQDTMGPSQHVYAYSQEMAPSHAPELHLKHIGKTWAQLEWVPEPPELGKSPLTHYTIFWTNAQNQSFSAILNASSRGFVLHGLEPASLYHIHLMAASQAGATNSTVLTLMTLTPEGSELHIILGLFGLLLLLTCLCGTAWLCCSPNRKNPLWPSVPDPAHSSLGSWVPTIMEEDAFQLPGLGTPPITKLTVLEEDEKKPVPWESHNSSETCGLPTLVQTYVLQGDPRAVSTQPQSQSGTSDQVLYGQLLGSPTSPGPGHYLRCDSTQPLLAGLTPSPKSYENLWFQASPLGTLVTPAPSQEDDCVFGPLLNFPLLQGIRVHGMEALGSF

[3] = biological target: T1, granulocyte colony stimulating factor receptor; experiment: western blotting and FACS
[4] = biological target: T1, granulocyte colony stimulating factor receptor; experiment: western blot of control and CD114 (G-CSFR) transfected samples, probed with 3B3

binding [1]: binds
B1: 3D9 TpoR agonist antibody (Fc fusion, not shown: a dimerising Fc or GST)
scFv: MAQVQLVQSGAEVRKVGSSVKVSCKASRDTFNTYGISWVRQAPGQGLEWMGGIIPIFGTADYAQKFRGRVTITADESTSTAYMELSSLRSEDTAVYYCARDRKLGGSDYWGQGTLVTVSSGGGGSGGGGSGGGGSDIVMTQSPSSVSASVGDKVTITCRASQGLGRWLAWYQQEPGKAPKLLIYAASTLQRGVPSRFSGSGSGTDFTLTISSLQPEDFATYYCQQSNSFPWTFGQGTKLEIKR

binding [2]: binds
binding [3]: binds
binding [4]: binds
B2: 3B3 anti-G-CSFR agonist antibody (Fc fusion, not shown: a dimerising Fc or GST)
scFv: MAQVQLLESGPGLVKPSQTLSLTCTVSGGSISSGGYYWSWIRQPPGKGLEWIGYIYYSGSTNYNPSLKSRVTISVDTSKNQFSLKLSSVTAADTAVYYCARWNGVNNAFDIWGQGTLVTVSSGGGGSGGGGSGGGGSDIQMTQSPSSVSASVGDRVTITCRASQGISSWLAWYQQKPGKAPKLLIYAASSLQSGVPSRFSGSGWGTELTLTISSLQPEDFATYYCLQHNTYPFTFGQGTKVTVLG
